Laboratory results: PubChem BioAssay AID504834 (National Center for Advancing Translational Sciences (NCATS), 2011)
The campaign covered roughly 320,000 compounds. About 22,000 (6.9%) were called active. The shares of active, inactive and inconclusive entries below differ from those in the screen. Calls come from the whole dose curve; as a rule, active = well fitted inhibition curve with a large enough effect; inconclusive = small, poorly fitted or top-dose-only effect, or another doubt; inactive = no such curve, though single readings can be large or run the other way. Potencies beside an inconclusive call are fits to weak or partial responses and may not hold up.

Assay: Primary qHTS for delayed death inhibitors of the malarial parasite plastid, 96 hour incubation
Conditions: P. falciparum luciferase reporter growth; series mostly up to 28.7 µM; activity change, negative = inhibition: at the top concentration
How it was run: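 Plates of compound plus infected erythrocytes (2% hematocrit, 0.05% parasitemia final) incubate 96 hours, 37 C, 5% CO2. Detection reagent added; reduced luminescence from the parasites' luciferase reporter flags inhibition.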
% is set by controls: 0 for no effect and ±100 for the full control effect; potency is the fitted concentration of half-maximal effect.

SMILES	activity change, negative = inhibition	Potency
Cc1ccc(C(=O)COc2ccccc2C(=O)Nc2ccccc2)cc1	inactive: -16%	–
Cc1ccc(NC(=O)c2ccc(S(=O)(=O)N3CCC(C)CC3)cc2)nc1	–	inconclusive: 16.5 µM [inhibitor, single point]
Cc1csc(=O)n1CC(=O)OCC(=O)Nc1cc(S(=O)(=O)N2CCOCC2)ccc1Cl	inactive: -3.28%	–
Cc1ccc(-c2noc(CN3CCOCC3)n2)cc1	inactive: 52.9%	–
CCCCn1c(N)c(N(CCC(C)C)C(=O)COC(=O)c2sccc2C)c(=O)[nH]c1=O	–	inconclusive: 18.5 µM [inhibitor, single point]
Cc1ccc(C(=O)N/C(=C/c2ccccc2F)C(=O)NCCCn2ccnc2)cc1	–	inconclusive: 18.5 µM [inhibitor, single point]
CCC(NC(=O)c1cc(COc2ccc(F)c(F)c2)on1)c1ccncc1 (stereo not given)	–	inconclusive: 16.5 µM [inhibitor, single point]
O=C(c1cc(COc2cccc(C(F)(F)F)c2)on1)N1C[C@@H]2CCC[C@H]1C2	inactive: 24.6%	–
CCN1C(=O)C(CC(=O)Nc2ccccc2)S/C1=N\c1ccccn1 (stereo not given)	inactive: 22.2%	–
Cc1cc(C)n2nc(CNS(=O)(=O)c3ccc(CC(C)C)cc3)nc2n1	inactive: 103%	–
Cc1ccsc1C(=O)N(c1nc2ccccc2s1)c1c(C)cccc1C	–	active: 8.28 µM
Cc1cc(OCC(=O)N2CCCN(C)CC2)ccc1Cl	inactive: 6.92%	–
O=C(Nc1ccc(S(=O)(=O)N2CCCC2)cc1)c1ccc2c(=O)n3c(nc2c1)CCCCC3	–	inconclusive: 0.0329 µM [inhibitor, full curve, poor fit]
COC(=O)c1cc(CNC(=O)c2ccc(N3CCCC3)c([N+](=O)[O-])c2)ccc1OC	inactive: -6.03%	–
COc1cc(/C=C2\C(=O)N(c3ccc(NC(C)=O)cc3)N=C2c2ccccc2)ccc1O	inactive: 35.3%	–
CCN(C(=O)COC(=O)/C=C/c1ccc(S(=O)(=O)N2CCc3ccccc32)cc1)C1CCS(=O)(=O)C1 (stereo not given)	–	inconclusive: 5.86 µM [inhibitor, partial curve, poor fit]
CCOc1ccc2nc3c(cc2c1)CN(CCOC)C(=NCCOC)S3	–	inconclusive: 4.15 µM [inhibitor, single point]
Cc1ccc(C2(C)NC(=O)N(CC(=O)NNC(=O)c3ccccc3)C2=O)cc1 (stereo not given)	inactive: -10.7%	–
Cc1ccc(-c2nnn(CC(=O)N(c3ccccc3)C(C(=O)NCC3CCCO3)c3cccs3)n2)o1 (stereo not given)	–	active: 10.4 µM
CCOc1ccc(N(CC(=O)NCCSCc2ccccc2Cl)S(C)(=O)=O)cc1	–	inconclusive: 18.5 µM [inhibitor, single point]
CN(C)S(=O)(=O)c1cccc(COC(=O)c2ccc(Cl)cc2O)c1	inactive: 43.6%	–
CCOC(=O)NC1(NCc2ccccc2)Oc2ccccc2O1	–	inconclusive: 18.5 µM [inhibitor, single point]
COc1cccc(N2CCN(CC(=O)Nc3nc4c(s3)CC(C)CC4)CC2)c1 (stereo not given)	–	inconclusive: 18.5 µM [inhibitor, single point]
Cc1ccc(S(=O)(=O)N(C)C)cc1NC(=O)CN1CCN(Cc2ccccc2)CC1	inactive: -15.4%	–
CCOC(CNC(=O)Cn1nc(C)c2ccccc21)OCC	–	inconclusive: 10.4 µM [inhibitor, single point]

SMILES	activity change, negative = inhibition	Potency
O=C(NCc1ccccn1)C1CCN(S(=O)(=O)c2ccccc2C(F)(F)F)CC1	–	inconclusive: 11.7 µM [inhibitor, partial curve, poor fit]
CCOc1ccc(Nc2nc(N)c([N+](=O)[O-])c(N3CCN(CC)CC3)n2)cc1	–	inconclusive: 18.5 µM [inhibitor, single point]
O=C(NCCOc1ccc(F)cc1)C1CCC(=O)N(CCc2ccccn2)C1 (stereo not given)	–	inconclusive: 18.5 µM [inhibitor, single point]
Cc1cccnc1NC(=O)c1ccc(Cl)c(S(=O)(=O)N2CCCCC2)c1	–	inconclusive: 5.22 µM [inhibitor, partial curve]
O=C(CCl)NNC(=O)c1c(O)c2ccccc2[nH]c1=O	–	inconclusive: 4.65 µM [inhibitor, partial curve]
Cc1cc(C)n(C(=O)CNC(=O)c2ccccc2F)n1	inactive: 22.8%	–
CC(=O)C1=C(C)NC(SCC(=O)Nc2nc3ccccc3s2)=C(C#N)C1c1ccc(Cl)cc1 (stereo not given)	–	active: 6.57 µM
CC(C)(C)N=C1NN=C(c2ccc(Cl)cc2)CS1	inactive: -70.6%	–
Cc1cccc(NC(=O)c2cccc(N3C(=O)C4C5C=CC(C6CC56)C4C3=O)c2)c1 (stereo not given)	–	inconclusive: 13.1 µM [inhibitor, single point]
COc1ccc(CSc2nc(C)cc(=O)[nH]2)cc1	–	active: 4.65 µM
CNC(=S)N1CCN(c2ccc(OC)cc2)CC1	inactive: 26.2%	–
CCNC(=S)N/N=C/c1cc(C)ccc1C	inactive: 32.1%	–
COCc1c(C(=O)N/N=C(/C)c2ccc(OCc3ccccc3)cc2)nnn1-c1nonc1N	inactive: 47.2%	–
CCc1ccc(/C=N/NC(=O)c2ccc(OC3CCCC3)cc2)s1	–	inconclusive: 18.5 µM [inhibitor, single point]
COc1cc(C(=O)n2nc(C)cc2C)cc(OC)c1OC	–	inconclusive: 11.7 µM [inhibitor, single point]
COc1ccc(-c2nn(-c3ccccc3)cc2/C=C/C(=O)N2CCN(c3ccccn3)CC2)cc1	–	active: 10.4 µM
O=C(Cc1c[nH]c2ccccc12)NC1(C(=O)NC2CCCC2)CCCCC1	inactive: -33.6%	–
O=S(=O)(NC1CCCC1)c1ccccc1Cl	–	inconclusive: 16.5 µM [inhibitor, single point]
O=c1c2ccccc2ncn1-c1ccc(Cl)cc1[N+](=O)[O-]	–	inconclusive: 18.5 µM [inhibitor, partial curve, poor fit]
O=S(=O)(c1ccccc1F)N(Cc1ccco1)Cc1nnc(-c2ccccc2Br)o1	–	inconclusive: 0.0037 µM [inhibitor, full curve, poor fit]
COc1ccccc1C(=O)NC1CCSc2ccccc21 (stereo not given)	–	inconclusive: 11.7 µM [inhibitor, partial curve, poor fit]
CCOC(=O)Cc1nnc(NC(=O)CSc2nc3ccccc3[nH]2)s1	inactive: 10.5%	–
CCc1ccc(NC(=O)CSc2nnc(Cc3cccn3C)n2-c2ccc(F)cc2)cc1	–	active: 2.33 µM
COc1ccc(N(CC(=O)Nc2cc(OC)c(OC)cc2C(=O)O)S(=O)(=O)c2c(C)noc2C)cc1	–	inconclusive: 14.7 µM [inhibitor, single point]
O=C(Nc1ccccc1F)c1ccc(O)c2ncccc12	–	active: 1.47 µM

Complete entries from above:
CCOC(=O)Cc1nnc(NC(=O)CSc2nc3ccccc3[nH]2)s1 in the list: activity change, negative = inhibition: inactive: 10.5%
COc1cc(C(=O)n2nc(C)cc2C)cc(OC)c1OC in the list: Potency: inconclusive: 11.7 µM [inhibitor, single point]
Cc1ccc(C2(C)NC(=O)N(CC(=O)NNC(=O)c3ccccc3)C2=O)cc1 (stereo not given) in the list: activity change, negative = inhibition: inactive: -10.7%
Cc1cccc(NC(=O)c2cccc(N3C(=O)C4C5C=CC(C6CC56)C4C3=O)c2)c1 (stereo not given) in the list: Potency: inconclusive: 13.1 µM [inhibitor, single point]

Additional records:

SMILES	activity change, negative = inhibition	Potency
CCn1c2ccccc2c2cc(NC(=O)CN(C)CC(=O)Nc3ccc(N4CCOCC4)cc3)ccc21	–	active: 14.7 µM
Cc1cc(C)c(O)c(NC(=S)NC(=O)Cc2ccccc2)c1	–	inconclusive: 18.5 µM [inhibitor, single point]
COc1cccc(N=Nc2c(N)[nH]n3c(=O)cc(-c4ccccc4)nc23)c1	–	inconclusive: 0.0738 µM [inhibitor, full curve, poor fit]
Cc1cc(C)c(NC(=O)CN2CCN(C)CC2)c(C)c1	–	inconclusive: 9.28 µM [inhibitor, partial curve]
CCOC(=O)c1c(NC(=O)Nc2ccc(F)cc2)sc2c1CCN(C)C2	–	inconclusive: 7.38 µM [inhibitor, partial curve]
CCCCN1C(=O)C(O)=C(C(C)=O)C1c1ccc(OC)cc1OC (stereo not given)	inactive: 92%	–
COC(=O)c1ccccc1NC(=S)NC(NC(=O)c1ccco1)C(Cl)(Cl)Cl (stereo not given)	inactive: 102%	–
COc1ccc(OC)c(NC(=O)c2cc(-c3cc(C)ccc3O)n[nH]2)c1	–	active: 6.57 µM
Cc1c(CCC(=O)N[C@@H](C)C(=O)O)c(=O)oc2cc3oc4c(c3cc12)CCCC4	inactive: 11.1%	–
Cc1cccc(C)c1NC1=NC(C)(C)N=C(N)N1	inactive: 132%	–
C=C(C)CSc1nc2c(c(=O)[nH]c(=O)n2C)n1CCC(C)C	inactive: 146%	–
CCc1cc(=O)oc2c(CNCc3ccc(OC)cc3OC)c(O)c(Cl)cc12	–	inconclusive: 11.7 µM [inhibitor, single point]
O=C(Cn1c2[n+](c3ccc(C(F)(F)F)cc31)CCCCC2)Nc1ccccc1	–	inconclusive: 2.62 µM [inhibitor, full curve]
CCN(CC)P(=O)(NC(=O)C(Cl)(Cl)Cl)N(CC)CC.[Cl-].[Cl-].[Cl-].[Nd+3]	–	inconclusive: 14.7 µM [inhibitor, partial curve, poor fit]
O=C(NC(O)C(=O)c1cccs1)c1cccnc1 (stereo not given)	–	inconclusive: 10.4 µM [inhibitor, partial curve]
CCOC(=O)c1ccc(N2C(=O)C=C(N3CCOCC3)C2=O)cc1	–	inconclusive: 0.928 µM [inhibitor, partial curve, poor fit]
CC(Sc1nnc(-c2ccco2)n1C)C(=O)Nc1nccs1 (stereo not given)	–	active: 5.22 µM
Cn1c(CNC(=O)c2ccccc2F)nnc1SCC(=O)c1ccccc1	–	inconclusive: 18.5 µM [inhibitor, single point]
CCCc1cc(C(=O)NCc2cccnc2)no1	inactive: -7.96%	–
O=C(Cn1c(=O)oc2cc(S(=O)(=O)N3CCCC3)ccc21)N1CCCC1	inactive: -97.9%	–
Cc1ccccc1-n1nc(C(=O)O)c(C)c(C#N)c1=O	–	inconclusive: 10.4 µM [inhibitor, partial curve, poor fit]
Cc1c(C(=O)NCCc2ccccc2)oc2ccc(S(=O)(=O)N3CCOCC3)cc12	inactive: -2.97%	–
O=S(=O)(NC1CCCCCC1)c1cccc2cccnc12	–	active: 5.22 µM
CC(=O)Nc1sc(N)nc1-c1ccccc1	–	inconclusive: 10.4 µM [inhibitor, partial curve]
CCCS(=O)(=O)c1nc(S(=O)(=O)c2ccc(C)cc2)c(N2CCC(C)CC2)s1	–	active: 14.7 µM
